Binding data for two substances are collected here from publication PMC11211486.

Amino acid sequences for entries named in this document (tags omitted). Residues count along the entry.
UniProt P0AFB1, residues 20-294: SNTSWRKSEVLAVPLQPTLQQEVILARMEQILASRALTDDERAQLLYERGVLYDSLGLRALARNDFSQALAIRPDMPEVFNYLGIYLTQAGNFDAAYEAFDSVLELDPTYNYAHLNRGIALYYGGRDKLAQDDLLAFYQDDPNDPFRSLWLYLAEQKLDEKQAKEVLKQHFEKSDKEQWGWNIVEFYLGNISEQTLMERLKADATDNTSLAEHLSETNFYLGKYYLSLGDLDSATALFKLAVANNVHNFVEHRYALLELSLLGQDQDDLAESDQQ

Results are given in words; binding and its absence hold for the method and conditions named. For some assays here: Sequences can lack the tags named with a protein.

Experiment [1] concerns the target T1, dN36-His, His-tagged dN36-MepS used as bait in the Ni-NTA pull-down (E. coli) (UniProt P0AFV4).
T1 sequence: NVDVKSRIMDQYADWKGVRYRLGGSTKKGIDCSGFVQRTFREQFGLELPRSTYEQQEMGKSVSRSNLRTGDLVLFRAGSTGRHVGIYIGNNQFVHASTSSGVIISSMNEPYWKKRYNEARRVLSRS
The experiment is described as follows: pull-down; 19 µM His-tagged MepS protein and 2 µM untagged NlpI with Ni-NTA resin overnight at 4 °C; 500 mM NaCl, 25 mM NaPi, 5% glycerol, 5 mM β-mercaptoethanol, pH 8.0; wash 20 mM imidazole, elution 400 mM imidazole; Coomassie SDS-PAGE; both purified.

The target in experiment [2] is T2, dN36-MepS (residues 37-162) (E. coli) (UniProt P0AFV4).
T2 sequence: T1 sequence
Description: condition: 30 µM MepS protein in the cell, 300 or 600 µM NlpI in the syringe; ITC; NlpI (or NlpI-ΔN) in the syringe, 300 or 600 µM, injected into 30 µM MepS protein in the cell; 20 °C; 20 mM HEPES pH 7.5, 300 mM NaCl, 2 mM β-mercaptoethanol; one set of sites model; three experiments and their average; both purified.

Consider “untagged NlpI (residues 20-294) used in the Ni-NTA pull-down (from UniProt P0AFB1 20-294)”, for which, in experiment [1], the binding entry was “no binding (tested: 19 µM MepS protein, 2 µM NlpI)”.

As for “NlpI (residues 20-294, without the lipoprotein signal peptide) (from UniProt P0AFB1 20-294)”, in experiment [2], the binding entry is “no binding”.
